Reference: article PMC7614227, “Structural Basis of Mammalian Respiratory Complex I Inhibition by Medicinal Biguanides” (Science (New York, N.Y.), 2023)

Test system: T1, bovine complex I
T1 construct: Complex I for cryo-EM analyses was prepared by a method adapted from that of Jones et al; tissue C; Humphreys and Sons, Chelmsford, U.K. (abattoir); host or cells: bovine heart mitochondria (two hearts), DDM-solubilized, Q-Sepharose and Superose 6 Increase 10/300
Assay: Cryo-EM of purified complex I with 350 μM IM1092
Type: binding
Settings: for population with clear evidence of IM1092 occupying the Q-channel: 350 μM IM1092

N=C(N=C(N)N)NCCc1ccc(I)c(Cl)c1 [IM1092]
imaged protein population disrupted at the ND5/NDUFB4 interface (350 μM IM1092, all classes): ~ 65%
population with clear evidence of IM1092 occupying the Q-channel (of the [deactive and slack] population): 56-75%
population with clear evidence of IM1092 occupying the Q-channel (of the total population): 45-60%
